According to publication PMC10654028:
No constants are given. Whether binding was seen depends on the method and setting. In cells and extracts the contact can be indirect. Some results given as binding are weak or reduced against the parent protein; the word gives no strength. For some assays here: Where a sequence is shown, tags or fusion partners need not be part of it.

Chains of the proteins cited; added tags and fusions are not shown.
UniProt Q86W56: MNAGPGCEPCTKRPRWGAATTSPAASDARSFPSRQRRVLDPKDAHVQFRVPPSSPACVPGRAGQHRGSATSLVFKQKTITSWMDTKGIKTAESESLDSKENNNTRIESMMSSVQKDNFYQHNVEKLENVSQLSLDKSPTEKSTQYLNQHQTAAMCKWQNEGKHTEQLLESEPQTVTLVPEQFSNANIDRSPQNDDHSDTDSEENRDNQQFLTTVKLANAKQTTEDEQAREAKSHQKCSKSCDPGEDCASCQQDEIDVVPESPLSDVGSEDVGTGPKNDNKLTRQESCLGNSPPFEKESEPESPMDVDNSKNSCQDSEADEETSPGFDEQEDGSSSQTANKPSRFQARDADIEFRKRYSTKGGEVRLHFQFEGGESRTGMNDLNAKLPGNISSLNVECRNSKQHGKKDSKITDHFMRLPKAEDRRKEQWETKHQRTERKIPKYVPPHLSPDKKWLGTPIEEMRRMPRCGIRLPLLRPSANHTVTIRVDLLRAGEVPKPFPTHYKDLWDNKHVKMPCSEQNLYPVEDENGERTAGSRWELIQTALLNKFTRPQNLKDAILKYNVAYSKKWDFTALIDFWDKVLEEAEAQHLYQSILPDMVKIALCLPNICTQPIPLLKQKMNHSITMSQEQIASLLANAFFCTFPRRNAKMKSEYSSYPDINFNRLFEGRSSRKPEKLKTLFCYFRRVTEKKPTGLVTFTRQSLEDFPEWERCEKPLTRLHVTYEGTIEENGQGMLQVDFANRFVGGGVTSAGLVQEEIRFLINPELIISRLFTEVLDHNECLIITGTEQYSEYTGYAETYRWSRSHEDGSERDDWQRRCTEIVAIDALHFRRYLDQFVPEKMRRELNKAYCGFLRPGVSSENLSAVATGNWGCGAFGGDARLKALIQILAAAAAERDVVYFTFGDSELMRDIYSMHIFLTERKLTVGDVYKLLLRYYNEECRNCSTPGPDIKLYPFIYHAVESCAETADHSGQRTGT

Columns and labels:
[1] = target: ADP-ribose glycohydrolase (PARG), endogenous (human (endogenous in 293T)) (UniProt Q86W56); assay: co-IP; 293T cell lysates immunoprecipitated with anti-PARG antibodies, immunoblotted with anti-OGT and anti-PARG antibodies; endogenous proteins
Flag-PARG (human) = Flag-PARG (human) (UniProt Q86W56); assay: co-IP; cells transfected with HA-OGT and Flag-PARG plasmids; lysates immunoprecipitated with anti-HA or anti-Flag antibodies and immunoblotted

B1: O-GlcNAc transferase (OGT), endogenous (enzyme, UniProt O15294 1-1046)
chain: MASSVGNVADSTEPTKRMLSFQGLAELAHREYQAGDFEAAERHCMQLWRQEPDNTGVLLLLSSIHFQCRRLDRSAHFSTLAIKQNPLLAEAYSNLGNVYKERGQLQEAIEHYRHALRLKPDFIDGYINLAAALVAAGDMEGAVQAYVSALQYNPDLYCVRSDLGNLLKALGRLEEAKACYLKAIETQPNFAVAWSNLGCVFNAQGEIWLAIHHFEKAVTLDPNFLDAYINLGNVLKEARIFDRAVAAYLRALSLSPNHAVVHGNLACVYYEQGLIDLAIDTYRRAIELQPHFPDAYCNLANALKEKGSVAEAEDCYNTALRLCPTHADSLNNLANIKREQGNIEEAVRLYRKALEVFPEFAAAHSNLASVLQQQGKLQEALMHYKEAIRISPTFADAYSNMGNTLKEMQDVQGALQCYTRAIQINPAFADAHSNLASIHKDSGNIPEAIASYRTALKLKPDFPDAYCNLAHCLQIVCDWTDYDERMKKLVSIVADQLEKNRLPSVHPHHSMLYPLSHGFRKAIAERHGNLCLDKINVLHKPPYEHPKDLKLSDGRLRVGYVSSDFGNHPTSHLMQSIPGMHNPDKFEVFCYALSPDDGTNFRVKVMAEANHFIDLSQIPCNGKAADRIHQDGIHILVNMNGYTKGARNELFALRPAPIQAMWLGYPGTSGALFMDYIITDQETSPAEVAEQYSEKLAYMPHTFFIGDHANMFPHLKKKAVIDFKSNGHIYDNRIVLNGIDLKAFLDSLPDVKIVKMKCPDGGDNADSSNTALNMPVIPMNTIAEAVIEMINRGQIQITINGFSISNGLATTQINNKAATGEEVPRTIIVTTRSQYGLPEDAIVYCNFNQLYKIDPSTLQMWANILKRVPNSVLWLLRFPAVGEPNIQQYAQNMGLPQNRIIFSPVAPKEEHVRRGQLADVCLDTPLCNGHTTGMDVLWAGTPMVTMPGETLASRVAASQLTCLGCLELIAKNRQEYEDIAVKLGTDLEYLKKVRGKVWKQRISSPLFNTKQYTMELERLYLQMWEHYAAGNKPDHMIKPVEVTESA
B1 was tested, and the binding [1] was “binds”.

B2: HA-OGT (enzyme, UniProt O15294 1-1046)
chain: MASSVGNVADSTEPTKRMLSFQGLAELAHREYQAGDFEAAERHCMQLWRQEPDNTGVLLLLSSIHFQCRRLDRSAHFSTLAIKQNPLLAEAYSNLGNVYKERGQLQEAIEHYRHALRLKPDFIDGYINLAAALVAAGDMEGAVQAYVSALQYNPDLYCVRSDLGNLLKALGRLEEAKACYLKAIETQPNFAVAWSNLGCVFNAQGEIWLAIHHFEKAVTLDPNFLDAYINLGNVLKEARIFDRAVAAYLRALSLSPNHAVVHGNLACVYYEQGLIDLAIDTYRRAIELQPHFPDAYCNLANALKEKGSVAEAEDCYNTALRLCPTHADSLNNLANIKREQGNIEEAVRLYRKALEVFPEFAAAHSNLASVLQQQGKLQEALMHYKEAIRISPTFADAYSNMGNTLKEMQDVQGALQCYTRAIQINPAFADAHSNLASIHKDSGNIPEAIASYRTALKLKPDFPDAYCNLAHCLQIVCDWTDYDERMKKLVSIVADQLEKNRLPSVHPHHSMLYPLSHGFRKAIAERHGNLCLDKINVLHKPPYEHPKDLKLSDGRLRVGYVSSDFGNHPTSHLMQSIPGMHNPDKFEVFCYALSPDDGTNFRVKVMAEANHFIDLSQIPCNGKAADRIHQDGIHILVNMNGYTKGARNELFALRPAPIQAMWLGYPGTSGALFMDYIITDQETSPAEVAEQYSEKLAYMPHTFFIGDHANMFPHLKKKAVIDFKSNGHIYDNRIVLNGIDLKAFLDSLPDVKIVKMKCPDGGDNADSSNTALNMPVIPMNTIAEAVIEMINRGQIQITINGFSISNGLATTQINNKAATGEEVPRTIIVTTRSQYGLPEDAIVYCNFNQLYKIDPSTLQMWANILKRVPNSVLWLLRFPAVGEPNIQQYAQNMGLPQNRIIFSPVAPKEEHVRRGQLADVCLDTPLCNGHTTGMDVLWAGTPMVTMPGETLASRVAASQLTCLGCLELIAKNRQEYEDIAVKLGTDLEYLKKVRGKVWKQRISSPLFNTKQYTMELERLYLQMWEHYAAGNKPDHMIKPVEVTESA
For B2, the binding (Flag-PARG (human)) was “binds”.
